{"source": "patent US12472226B2", "about": "“Cell-permeable peptide” (priority 2019, dated 2025)", "key": {"HT-1080 cells [1]": {"test_system": "HT-1080 cells", "assay": "Test of monitoring changes in mitochondrial membrane potential (JC-1 apoptosis rate)", "format": "cell-based, human", "details": "7 days, Example 1 at 25, 50 and 100 μg/mL, Comparative Examples at 50 and 100 μg/mL", "source_text": "(§1) Human fibrosarcoma-derived HT-1080 cells (HT-1080 cells, JCRB cell bank) were used as cancer cells in the test for monitoring changes in mitochondrial membrane potential. HT-1080 cells, human osteosarcoma cell line Hos cells (Hos cells, JCRB cell bank), human histiocytic lymphoma/macrophage U937 cells (U937 cells, JCRB cell bank), human myeloid leukemia HL-60 cells (HL-60 cells, JCRB cell bank), acute monocytic leukemia THP-1 cells (THP-1 cells, JCRB cell bank), human alveolar basal epithelial adenocarcinoma cell A549 cells (A549 cells, Cell Resource Center for Biomedical Research, Institute of Development, Aging and Cancer, Tohoku University), human pancreatic carcinoma cells (MIA Paca 2 cells, Cell Resource Center for Biomedical Research, Institute of Development, Aging and Cancer, Tohoku University) and well differentiated human liver carcinoma-derived cell line HuH7 cells (HuH7 cells, Cell Resource Center for Biomedical Research, Institute of Development, Aging and Cancer, Tohoku University) were used as cancer cells in an in vitro cell-death induction test of cancer cells and a nuclear transport test of Example 2. Normal human gingival fibroblast cells Gin-1 (Gin-1 cells, DS Pharma Biomedical) were used as a control. The above-described cells were each inoculated into a 96-well culture plate (Falcon) at 5,000 cells/[…] and subjected to the following tests.\nThe synthetic peptide of Example 1 or Comparative Examples 1 to 3 was individually added to the HT-1080 cells, and the cells were cultured in a serum-supplemented medium (α-MEM+10% FBS). As a control, the HT-1080 cells were cultured in a serum-supplemented medium (α-MEM+10% FBS) without addition. After the cells were cultured for 7 days, the cells were washed once with phosphate buffered saline (PBS) and dyed with 2 μM JC-1 at 37° C. and 5% CO2 in the cell incubator for 30 minutes. Further, the cells were washed once with PBS followed by the addition of 100 μL of PBS, scanned with a confocal laser scanning microscope LSM800 (Zeiss) and then analyzed with ImageJ. […]"}, "HT-1080 cells [2]": {"test_system": "HT-1080 cells", "assay": "Test of inducing cell-death in vitro (Calcein-AM/PI dead cell rate)", "format": "cell-based, human", "source_text": "as §1\nThe peptide of SEQ ID NO: 1 labeled with FITC (Example 2) was used for the test of inducing cell-death in vitro in cancer cells. It was prepared the test example to which 100 μL of Example 2 and further 10% FBS were added and cultured for 9 days under conditions of 200 μL of serum-supplemented medium (Alpha modification of Eagle's MEM (α-MEM) (Thermo Fisher Scientific)+10% FBS). Furthermore, it was also produced the test example that was cultured for 21 days with the whole amount of Example 2-supplemented medium replaced every 7 days. […] Next, the dead cell rate relative to the number of total cells was analyzed using ImageJ. […]"}}, "note": "Some results were stated once for a whole list of compounds, not compound by compound.", "data": [{"substance": "Comparative Example 2: short synthetic peptide (SEQ ID NO: 30) made from Gly, Asn, Gly, Arg, Gly, Glu, Trp (GNGRGEW; Full length peptide)", "values": [{"measurement": "increase in apoptosis rate (number of green cell dyed with JC1/number of total cells)", "setting": "HT-1080 cells [1]", "result": "not observed"}]}, {"substance": "Example 4: peptide of SEQ ID NO: 34 labeled with FITC via an Ahx linker at the N-terminus", "values": [{"measurement": "effectiveness (cell-death induction)", "setting": "HT-1080 cells [2]; HT-1080 cells, 12.5 μg/mL, 9 days", "result": "effective even at the administration concentration of 12.5 μg/mL"}, {"measurement": "increases in the dead cell rate vs control", "setting": "HT-1080 cells [2]; HT-1080 cells, 12.5, 25, 50 and 100 μg/mL, 9th day", "result": "significant differences at the level of 1%"}, {"measurement": "dead cell rate", "setting": "HT-1080 cells [2]; HT-1080 cells, 50 or 100 μg/mL, 9th day", "result": "At least 60%"}]}, {"substance": "Comparative Example 3: oxidized short peptide (SEQ ID NO: 31) made from Cys, Asn, Gly, Arg, Cys (CNGRC; oxidized disulfide; Full length peptide; (1)..(5) Disulfide bond)", "values": [{"measurement": "increase in apoptosis rate (number of green cell dyed with JC1/number of total cells)", "setting": "HT-1080 cells [1]", "result": "not observed"}]}, {"substance": "Comparative Example 1: shorter synthetic peptide (SEQ ID NO: 29) with the NGR part, without the RGN part (CVCTGNGRGEWKC; Full length peptide)", "values": [{"measurement": "increase in apoptosis rate (number of green cell dyed with JC1/number of total cells)", "setting": "HT-1080 cells [1]", "result": "not observed"}]}]}
